Data source: PubChem BioAssay AID504774 (Drosophila RNAi Screening Center, 2011)
The deposit covers about 23,000 reagents; below is a random part of those with a known target gene and a result. 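Values are quantile-normalised luminescence on an arbitrary scale; higher means more cells surviving MMS.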 The numbers tell different reagents against one gene apart. A plus sign joins genes that one reagent is predicted to hit. No sequences are given here.

Test: 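Knock-downs that shift viability of MMS-exposed cells relative to untreated ones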 (primary screen)
Cells: Drosophila Kc167 cells
Reagents: long dsRNA against Drosophila genes, about 0.25 µg dsRNA per well
Timing: about 6 days: 3 days knock-down, then 3 days with or without MMS
Challenge: methyl methanesulphonate 0.004% (w/v) for 3 days after knock-down
Measured: 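Viability in wells given MMS, read as ATP luminescence, normalised by quantiles plate by plate and averaged across replicates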
Scale: mean viability with MMS and viability with MMS: higher = more surviving cells after MMS

Target gene | reagent | mean viability with MMS | viability with MMS, replicate 1 | viability with MMS, replicate 2
CG31211 | 1 | 3.50e6 | 3.87e6 | 4.05e6
CG31211 | 2 | 3.54e6 | 3.95e6 | 4.10e6
CG31211 | 3 | 3.69e6 | 4.22e6 | 4.09e6
toe (twin of eyg) | 1 | 3.44e6 | 3.86e6 | 3.95e6
toe (twin of eyg) | 2 | 3.23e6 | 3.57e6 | 3.69e6
CG14883 | 1 | 3.33e6 | 3.71e6 | 3.83e6
CG7985 | 1 | 3.59e6 | 4.03e6 | 4.10e6
CG4278 | 1 | 3.56e6 | 3.95e6 | 4.14e6
tmod (tropomodulin) | 1 | 3.65e6 | 4.09e6 | 4.10e6
tmod (tropomodulin) | 2 | 3.53e6 | 3.81e6 | 4.18e6
tmod (tropomodulin) | 3 | 3.52e6 | 3.90e6 | 4.06e6
tmod (tropomodulin) | 4 | 3.53e6 | 4.04e6 | 3.99e6
mats (mob as tumor suppressor) | 1 | 4.33e6 | 5.17e6 | 5.17e6
mats (mob as tumor suppressor) | 2 | 3.53e6 | 4.00e6 | 4.02e6
trbl (tribbles) | 1 | 3.54e6 | 4.01e6 | 4.00e6
Try29F (Trypsin 29F) | 1 | 3.67e6 | 3.87e6 | 4.44e6
da | 1 | 3.41e6 | 4.12e6 | 3.59e6
Saysd1 (SAYSVFN motif domain containing 1) | 1 | 3.71e6 | 4.21e6 | 4.18e6
AstC (Allatostatin C) | 1 | 3.46e6 | 4.16e6 | 3.67e6
CG32181 | 1 | 3.66e6 | 4.11e6 | 4.11e6
Mnat9 (microtubule-associated Nat9) | 1 | 3.46e6 | 3.93e6 | 3.90e6
CG16825 | 1 | 3.45e6 | 3.99e6 | 3.85e6
Trpm (Transient receptor potential cation channel, subfamily M) | 1 | 3.55e6 | 4.14e6 | 3.92e6
Trpm (Transient receptor potential cation channel, subfamily M) | 2 | 3.42e6 | 3.93e6 | 3.89e6
Zwilch | 1 | 3.41e6 | 3.78e6 | 3.90e6
Toll-9 | 1 | 3.49e6 | 3.93e6 | 3.97e6
Cyp4e1 (Cytochrome P450 4e1) | 1 | 3.53e6 | 3.99e6 | 4.02e6
Pvr (PDGF- and VEGF-receptor related) | 1 | 2.40e6 | 2.73e6 | 2.73e6

In a second layout: 5 of the entries above
tmod (tropomodulin) #2
- mean viability with MMS: 3.53e6
- viability with MMS, replicate 1: 3.81e6
- viability with MMS, replicate 2: 4.18e6

tmod (tropomodulin) #3
- mean viability with MMS: 3.52e6
- viability with MMS, replicate 1: 3.90e6
- viability with MMS, replicate 2: 4.06e6

tmod (tropomodulin) #4
- mean viability with MMS: 3.53e6
- viability with MMS, replicate 1: 4.04e6
- viability with MMS, replicate 2: 3.99e6

mats (mob as tumor suppressor) #1
- mean viability with MMS: 4.33e6
- viability with MMS, replicate 1: 5.17e6
- viability with MMS, replicate 2: 5.17e6

mats (mob as tumor suppressor) #2
- mean viability with MMS: 3.53e6
- viability with MMS, replicate 1: 4.00e6
- viability with MMS, replicate 2: 4.02e6

Continued:
Target gene | reagent | mean viability with MMS | viability with MMS, replicate 1 | viability with MMS, replicate 2
Bmcp | 1 | 3.68e6 | 4.22e6 | 4.13e6
Mst98Ca (Male-specific RNA 98Ca) | 1 | 3.64e6 | 4.01e6 | 4.21e6
CG6220 | 1 | 3.74e6 | 4.14e6 | 4.15e6
CG1409 | 1 | 3.23e6 | 3.51e6 | 3.75e6
Sobp (Sine oculis-binding protein) | 1 | 3.55e6 | 4.04e6 | 4.02e6
CG6126 | 1 | 3.53e6 | 3.92e6 | 4.09e6
CAH15 (Carbonic anhydrase 15) | 1 | 3.50e6 | 3.97e6 | 3.96e6
CG6833 | 1 | 3.55e6 | 4.02e6 | 4.01e6
CG31778 | 1 | 3.65e6 | 4.49e6 | 3.82e6
Dbp45A (DEAD box protein 45A) | 1 | 3.51e6 | 3.95e6 | 3.98e6
CG12229 | 1 | 3.64e6 | 4.12e6 | 4.10e6
PPP1R15 (Protein phosphatase 1 regulatory subunit 15) | 1 | 2.62e6 | 3.39e6 | 2.17e6
CG33695 + cana | 1 | 3.36e6 | 3.87e6 | 3.70e6
CG33695 + cana | 2 | 3.54e6 | 3.94e6 | 4.10e6
polo | 1 | 3.73e6 | 4.19e6 | 4.20e6
polo | 2 | 3.11e6 | 3.80e6 | 3.79e6
CG4020 | 1 | 3.52e6 | 4.07e6 | 3.93e6
CG13801 | 1 | 3.58e6 | 4.10e6 | 3.99e6
CG17593 | 1 | 3.74e6 | 4.33e6 | 4.04e6
RpL18 (Ribosomal protein L18) | 1 | 3.52e6 | 3.51e6 | 3.48e6
RpL18 (Ribosomal protein L18) | 2 | 2.62e6 | 3.71e6 | 3.69e6
CG5928 | 1 | 3.58e6 | 4.11e6 | 4.04e6
Mf (Myofilin) | 1 | 3.38e6 | 3.58e6 | 4.06e6
Ca-alpha1D (Ca[2+]-channel protein alpha[[1]] subunit D) | 1 | 3.70e6 | 3.88e6 | 4.56e6
Cpr11B (Cuticular protein 11B) | 1 | 3.50e6 | 3.80e6 | 4.03e6
CG17377 | 1 | 3.47e6 | 3.87e6 | 4.02e6
CG17377 | 2 | 3.54e6 | 4.01e6 | 4.02e6
CG17377 | 3 | 3.46e6 | 3.85e6 | 4.04e6
CG11470 | 1 | 3.55e6 | 4.01e6 | 4.02e6
CG13239 | 1 | 3.53e6 | 3.95e6 | 4.04e6
RpS18 (Ribosomal protein S18) | 1 | 2.96e6 | 3.53e6 | 3.55e6
CG8219 | 1 | 3.53e6 | 4.08e6 | 3.93e6
borr (borealin-related) | 1 | 3.01e6 | 3.35e6 | 3.43e6
Akt (Akt kinase) | 1 | 3.64e6 | 4.17e6 | 4.05e6
mib1 (mind bomb 1) | 1 | 3.63e6 | 4.14e6 | 4.08e6
CG33771 | 1 | 1.88e6 | 4.01e6 | 4.08e6
CG42735 (retired record) | 1 | 3.48e6 | 3.81e6 | 4.11e6
CG3625 | 1 | 3.68e6 | 4.14e6 | 4.19e6
CG3625 | 2 | 3.51e6 | 3.92e6 | 4.01e6
CG12115 | 1 | 3.70e6 | 4.04e6 | 4.28e6
